These are yes or no findings as the source states them, for the method shown. Binding seen in cells or lysates may run through a third protein. Binding calls can cover weak binding; strength is not graded here. Sequences can lack the tags named with a protein.
Molecular target: T1, HNF4A (partner of the HDAC3 truncations in the GST pull-down) (UniProt P41235)
T1 sequence: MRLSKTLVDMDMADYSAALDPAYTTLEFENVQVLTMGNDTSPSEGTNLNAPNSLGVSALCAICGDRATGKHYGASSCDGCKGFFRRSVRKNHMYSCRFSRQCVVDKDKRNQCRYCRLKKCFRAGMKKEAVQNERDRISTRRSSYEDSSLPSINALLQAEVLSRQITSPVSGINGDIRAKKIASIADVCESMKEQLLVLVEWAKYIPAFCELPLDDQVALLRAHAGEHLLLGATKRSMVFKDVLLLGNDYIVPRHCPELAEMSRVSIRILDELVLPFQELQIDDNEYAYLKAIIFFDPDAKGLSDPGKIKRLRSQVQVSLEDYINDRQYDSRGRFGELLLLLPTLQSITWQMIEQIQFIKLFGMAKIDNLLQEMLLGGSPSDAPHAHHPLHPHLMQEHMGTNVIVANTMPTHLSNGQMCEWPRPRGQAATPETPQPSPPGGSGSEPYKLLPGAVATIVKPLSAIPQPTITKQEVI
Test: pull-down; 5 µg GST-tagged protein with 85 µL 293T whole-cell lysate in 600 µL TAP buffer (50 mM Tris-HCl pH 7.5, 200 mM NaCl, 0.1% Triton X-100, 10% glycerol), 4 °C 2–3 h, glutathione-sepharose beads, immunoblot; which partner carried GST is told only for GST-HDAC3-DAD; only the target purified

binding: binds
Substance: HDAC3 N-terminus containing the deacetylase-activating domain (DAD) (domain or fragment)

Source: PMC12780113
